Data as given in PubChem BioAssay AID686938 (Drosophila RNAi Screening Center, 2013).
Test: 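Fly genes required for calcium entry once internal stores are emptied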 (primary screen). Cells: Drosophila S2R+ cells. Knock-down reagent: long dsRNA against Drosophila genes, about 0.25 µg dsRNA per well, roughly 10,000 cells. Duration: 5 days of knock-down before the calcium assay. Challenge: thapsigargin (SERCA pump blocker) to empty calcium stores; entry signal taken 4 min after adding it. Measured: 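Per-well fluo-4 fluorescence in two replicates, unnormalised, measured in resting cells and 4 min after store depletion by the SERCA blocker thapsigargin; ratio of the two present in few wells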. Reading the numbers: calcium entry signal: higher = stronger calcium signal after store depletion; entry to resting ratio: higher = more calcium entry relative to resting level; resting calcium signal: higher = higher resting calcium signal. Rule for the call: 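Hit if the duplicate-averaged plate z-score for entry over resting signal is under −3; wells with weak total dye signal (Fmax z < −2) or more than 5 off-targets removed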. Calls: active = strongly reduced calcium entry; inactive = no strong reduction.
The deposit covers about 23,000 reagents; below is an unselected part of those with a known target gene and a result. Over the whole deposit, 75 (0.33%) got an active call. 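Raw plate signals without normalisation; calls rest on plate z-scores that were not deposited; ratio present for only 364 wells.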 Entries without a mark were called inactive. The numbers tell different reagents against one gene apart. A plus sign joins genes that one reagent is predicted to hit. Not stated in the record: the dose of the treatment.

target | reagent | calcium entry signal, replicate 1 (fluorescence units) | calcium entry signal, replicate 2 (fluorescence units) | entry to resting ratio | resting calcium signal, replicate 1 (fluorescence units) | resting calcium signal, replicate 2 (fluorescence units)
kek4 | 1 | 5.03e7 | – | – | 2.54e7 | –
syd | 1 | 5.39e7 | 3.92e7 | – | 3.55e7 | 1.74e7
qless | 1 | 3.02e7 | 6.59e7 | – | 1.70e7 | 3.47e7
qless | 2 | 3.07e7 | 6.19e7 | – | 1.60e7 | 2.89e7
CG31294 | 1 | 4.73e7 | 3.45e7 | – | 2.83e7 | 1.82e7
PXo | 1 | 4.13e7 | 2.42e7 | – | 2.63e7 | 1.11e7
CG32188 | 1 | 4.24e7 | 4.73e7 | – | 1.89e7 | 2.12e7
RYa-R | 1 | 3.30e7 | 3.28e7 | – | 1.54e7 | 1.48e7
CG33648 | 1 | 2.69e7 | 3.83e7 | – | 1.48e7 | 1.55e7
mthl12 | 1 | 2.45e7 | 3.41e7 | – | 1.22e7 | 1.40e7
trem | 1 | 2.18e7 | 2.86e7 | – | 3.08e7 | 1.34e7
Obp51a | 1 | 2.28e7 | 3.44e7 | – | 1.16e7 | 1.51e7
Pka-C1 | 1 | 3.96e7 | – | – | 1.92e7 | –
Pka-C1 | 2 | 4.91e7 | 3.09e7 | – | 2.30e7 | 1.50e7
Uros1 | 1 | 3.27e7 | 3.30e7 | – | 1.64e7 | 1.54e7
Inos | 1 | 3.49e7 | 4.39e7 | – | 1.65e7 | 1.93e7
CG32847 | 1 | 3.77e7 | 3.50e7 | – | 2.06e7 | 1.59e7
CG15255 | 1 | 3.26e7 | 2.24e7 | – | 1.68e7 | 1.26e7
Vps60 | 1 | 4.62e7 | 6.72e7 | – | 2.22e7 | 2.61e7
Jupiter | 1 | 2.75e7 | 3.64e7 | – | 1.23e7 | 1.66e7
Jupiter | 2 | 3.96e7 | 3.83e7 | – | 2.08e7 | 1.84e7
Jupiter | 3 | 4.36e7 | 3.97e7 | – | 2.10e7 | 2.01e7

5 of these entries, reformatted:
| target | reagent | calcium entry signal, replicate 1 (fluorescence units) | calcium entry signal, replicate 2 (fluorescence units) | entry to resting ratio | resting calcium signal, replicate 1 (fluorescence units) | resting calcium signal, replicate 2 (fluorescence units) |
| --- | --- | --- | --- | --- | --- | --- |
| Obp51a | 1 | 2.28e7 | 3.44e7 | – | 1.16e7 | 1.51e7 |
| Pka-C1 | 1 | 3.96e7 | – | – | 1.92e7 | – |
| Pka-C1 | 2 | 4.91e7 | 3.09e7 | – | 2.30e7 | 1.50e7 |
| Uros1 | 1 | 3.27e7 | 3.30e7 | – | 1.64e7 | 1.54e7 |
| Inos | 1 | 3.49e7 | 4.39e7 | – | 1.65e7 | 1.93e7 |

Next entries follow:
target | reagent | calcium entry signal, replicate 1 (fluorescence units) | calcium entry signal, replicate 2 (fluorescence units) | entry to resting ratio | resting calcium signal, replicate 1 (fluorescence units) | resting calcium signal, replicate 2 (fluorescence units)
CG12490 | 1 | 3.84e7 | 4.43e7 | – | 1.95e7 | 1.97e7
CG10841 | 1 | 3.31e7 | 4.26e7 | – | 1.60e7 | 1.87e7
Ir62a | 1 | 3.53e7 | 4.21e7 | – | 1.82e7 | 1.98e7
PAN2 | 1 | 5.81e7 | 4.21e7 | – | 2.51e7 | 1.94e7
Bet3 | 1 | 2.44e7 | 2.74e7 | – | 1.34e7 | 1.32e7
Msr-110 | 1 | 3.54e7 | 2.13e7 | – | 2.40e7 | 9.60e6
CG14662 + asRNA:CR43478 | 1 | 3.26e7 | 5.02e7 | – | 1.63e7 | 2.34e7
drn + CG43675 | 1 | 2.14e7 | 1.80e7 | – | 1.17e7 | 1.03e7
C1GalTA | 1 | 5.29e7 | – | – | 2.40e7 | –
CG14285 | 1 | 3.81e7 | 3.24e7 | – | 4.13e7 | 1.40e7
CG13926 | 1 | 3.80e7 | 4.75e7 | – | 1.93e7 | 2.12e7
S1P | 1 | 3.16e7 | 4.25e7 | – | 1.59e7 | 2.15e7
Ir76a | 1 | 3.21e7 | 3.72e7 | – | 1.46e7 | 2.24e7
CG14420 | 1 | 3.34e7 | 5.95e7 | 2.1 | 1.57e7 | 2.16e7
CG15262 | 1 | 3.95e7 | 2.29e7 | – | 1.72e7 | 1.19e7
CG32820 + CG17450 + CG32819 | 1 | 4.20e7 | 3.40e7 | – | 2.36e7 | 1.60e7
CG32820 + CG17450 + CG32819 | 2 | 2.81e7 | 4.25e7 | – | 1.42e7 | 2.27e7
Scr | 1 | 4.12e7 | 2.63e7 | – | 2.16e7 | 1.52e7
Scr | 2 | 3.25e7 | 3.20e7 | – | 1.80e7 | 1.66e7
